Here are results for three substances from paper PMC5590128.

Sequences of proteins named here, by UniProt entry; tags and fusion partners are left off.
UniProt P49792: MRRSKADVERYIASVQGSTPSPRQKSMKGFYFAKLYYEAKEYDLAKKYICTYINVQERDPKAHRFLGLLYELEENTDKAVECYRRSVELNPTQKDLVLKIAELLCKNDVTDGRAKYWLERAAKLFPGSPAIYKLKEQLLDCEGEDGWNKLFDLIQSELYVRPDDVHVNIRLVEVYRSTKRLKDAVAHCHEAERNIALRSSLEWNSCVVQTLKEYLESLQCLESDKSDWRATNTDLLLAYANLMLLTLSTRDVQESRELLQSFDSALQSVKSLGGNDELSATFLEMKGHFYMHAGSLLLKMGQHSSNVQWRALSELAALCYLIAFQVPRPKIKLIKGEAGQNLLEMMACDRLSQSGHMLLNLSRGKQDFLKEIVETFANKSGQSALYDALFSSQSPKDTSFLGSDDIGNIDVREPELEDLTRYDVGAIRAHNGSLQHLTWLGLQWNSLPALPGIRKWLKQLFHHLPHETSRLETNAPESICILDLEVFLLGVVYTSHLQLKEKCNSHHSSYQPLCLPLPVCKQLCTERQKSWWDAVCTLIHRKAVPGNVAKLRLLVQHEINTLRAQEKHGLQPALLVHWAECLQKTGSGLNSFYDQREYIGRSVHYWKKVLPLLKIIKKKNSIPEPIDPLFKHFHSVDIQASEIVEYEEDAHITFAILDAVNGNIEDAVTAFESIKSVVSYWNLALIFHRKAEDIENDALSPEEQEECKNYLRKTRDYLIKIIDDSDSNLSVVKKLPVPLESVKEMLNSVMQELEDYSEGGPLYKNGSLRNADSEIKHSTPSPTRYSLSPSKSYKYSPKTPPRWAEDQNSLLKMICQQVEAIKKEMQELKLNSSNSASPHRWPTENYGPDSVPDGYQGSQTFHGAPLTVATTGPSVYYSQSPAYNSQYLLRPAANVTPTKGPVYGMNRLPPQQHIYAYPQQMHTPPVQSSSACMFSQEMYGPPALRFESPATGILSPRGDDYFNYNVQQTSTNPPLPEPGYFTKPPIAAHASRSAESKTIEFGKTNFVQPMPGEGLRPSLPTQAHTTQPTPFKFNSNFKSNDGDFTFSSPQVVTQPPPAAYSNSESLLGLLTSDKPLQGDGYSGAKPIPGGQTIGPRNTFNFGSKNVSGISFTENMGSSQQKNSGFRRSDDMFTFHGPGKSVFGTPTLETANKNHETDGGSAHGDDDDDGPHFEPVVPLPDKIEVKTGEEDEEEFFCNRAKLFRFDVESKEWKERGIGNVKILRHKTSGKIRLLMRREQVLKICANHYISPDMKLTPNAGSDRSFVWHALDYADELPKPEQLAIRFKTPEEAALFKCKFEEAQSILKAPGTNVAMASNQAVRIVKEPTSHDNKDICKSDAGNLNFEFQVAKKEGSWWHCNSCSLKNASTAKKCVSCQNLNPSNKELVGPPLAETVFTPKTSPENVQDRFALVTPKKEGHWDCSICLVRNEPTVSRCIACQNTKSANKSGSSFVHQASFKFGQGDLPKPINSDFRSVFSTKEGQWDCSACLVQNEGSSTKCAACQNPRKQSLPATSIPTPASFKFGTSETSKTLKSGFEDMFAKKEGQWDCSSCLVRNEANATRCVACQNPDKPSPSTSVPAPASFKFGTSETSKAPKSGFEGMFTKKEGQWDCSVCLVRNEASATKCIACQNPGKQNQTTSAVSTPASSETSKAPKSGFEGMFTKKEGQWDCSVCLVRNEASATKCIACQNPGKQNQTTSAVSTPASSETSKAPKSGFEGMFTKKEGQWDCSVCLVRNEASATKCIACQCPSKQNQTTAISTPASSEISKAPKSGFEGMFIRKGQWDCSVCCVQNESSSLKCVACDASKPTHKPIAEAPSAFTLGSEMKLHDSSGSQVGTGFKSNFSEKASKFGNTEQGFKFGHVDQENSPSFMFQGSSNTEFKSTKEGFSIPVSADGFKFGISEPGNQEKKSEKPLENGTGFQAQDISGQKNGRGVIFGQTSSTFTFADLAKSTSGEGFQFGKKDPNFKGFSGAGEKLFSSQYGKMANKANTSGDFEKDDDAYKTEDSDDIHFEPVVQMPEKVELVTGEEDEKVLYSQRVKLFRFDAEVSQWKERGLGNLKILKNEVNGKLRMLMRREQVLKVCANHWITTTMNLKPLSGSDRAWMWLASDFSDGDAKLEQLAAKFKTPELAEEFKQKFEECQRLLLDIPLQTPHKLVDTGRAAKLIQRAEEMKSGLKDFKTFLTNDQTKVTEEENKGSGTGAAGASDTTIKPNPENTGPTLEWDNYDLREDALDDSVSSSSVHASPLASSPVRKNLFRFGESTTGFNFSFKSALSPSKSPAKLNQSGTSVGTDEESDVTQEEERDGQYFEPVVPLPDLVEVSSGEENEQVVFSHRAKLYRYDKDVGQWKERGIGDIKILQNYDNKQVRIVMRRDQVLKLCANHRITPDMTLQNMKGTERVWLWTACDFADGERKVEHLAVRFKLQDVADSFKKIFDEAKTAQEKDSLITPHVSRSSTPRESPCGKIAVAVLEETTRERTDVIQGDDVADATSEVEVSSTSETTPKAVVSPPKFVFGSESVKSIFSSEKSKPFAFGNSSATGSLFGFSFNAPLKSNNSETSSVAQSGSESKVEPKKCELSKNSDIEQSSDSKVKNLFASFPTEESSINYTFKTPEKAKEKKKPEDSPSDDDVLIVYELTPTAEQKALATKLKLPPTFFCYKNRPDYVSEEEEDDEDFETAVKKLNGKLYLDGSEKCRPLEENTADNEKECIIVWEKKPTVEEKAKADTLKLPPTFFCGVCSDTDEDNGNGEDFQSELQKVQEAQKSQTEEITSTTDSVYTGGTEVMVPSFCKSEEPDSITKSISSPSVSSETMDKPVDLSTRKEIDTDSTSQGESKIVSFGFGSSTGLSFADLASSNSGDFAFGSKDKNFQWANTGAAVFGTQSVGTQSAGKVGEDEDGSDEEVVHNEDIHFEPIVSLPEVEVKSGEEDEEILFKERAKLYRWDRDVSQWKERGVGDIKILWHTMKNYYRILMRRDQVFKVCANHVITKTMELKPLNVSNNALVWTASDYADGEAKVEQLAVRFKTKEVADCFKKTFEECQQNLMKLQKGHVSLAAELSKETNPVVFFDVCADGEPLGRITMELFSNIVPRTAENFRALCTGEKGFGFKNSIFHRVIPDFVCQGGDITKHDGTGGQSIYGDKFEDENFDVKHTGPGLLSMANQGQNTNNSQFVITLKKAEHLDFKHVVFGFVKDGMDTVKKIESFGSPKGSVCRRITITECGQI
UniProt P46527: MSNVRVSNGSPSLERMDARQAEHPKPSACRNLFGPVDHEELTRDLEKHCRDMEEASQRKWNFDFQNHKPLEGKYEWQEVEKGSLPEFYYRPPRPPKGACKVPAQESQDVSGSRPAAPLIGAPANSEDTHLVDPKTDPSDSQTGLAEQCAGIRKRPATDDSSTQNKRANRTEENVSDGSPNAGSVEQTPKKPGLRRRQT

One assay concerns the target HA-RanBP2 (UniProt P49792). In words: co-IP; QBC939 cells transfected with flag-p27kip1 and HA-RanBP2; lysed in NETN buffer; anti-HA or anti-flag antibody and Protein G Agarose overnight at 4 °C; four washes with NETN; western blotting.
The target of another assay is GST-RanBP2 (UniProt P49792). Kind of assay: pull-down; GST-pull down with GST-RanBP2 and His-p27kip1, as mentioned by Sambrook (ref. 25); no further conditions given.
The next assay deals with flag-p27kip1-wt (UniProt P46527). In words: co-IP; QBC939 cells transfected with flag-p27kip1 and HA-RanBP2; lysed in NETN buffer; anti-HA or anti-flag antibody and Protein G Agarose overnight at 4 °C; four washes with NETN; western blotting.

These are yes or no findings as the source states them, for the method shown. In cells and extracts the contact can be indirect. Some binding calls cover weakened binding; strength is not graded here.

For “flag-p27kip1-wt (from UniProt P46527 1-198)”, the binding result with HA-RanBP2 is listed as “binds”. In the case of His-p27kip1 (from UniProt P46527 1-198), in the assay with GST-RanBP2, the binding entry is listed as “binds”. As to HA-RanBP2 (from UniProt P49792 1-3224), the binding entry in the assay with flag-p27kip1-wt is “binds”.
